Results reported in PubChem BioAssay AID1487 (National Center for Advancing Translational Sciences (NCATS), 2009).
Some of the results follow. These are further read-outs of the screen, such as a control signal, another cell line or another target. No call is given for them. The list favours compounds with an active or inconclusive main result. The note in brackets gives the kind of curve behind each potency; many fits are weak.

Experiment: qHTS Assay for Modulators of Lamin A Splicing
Settings: HeLa LMNA splicing GFP/RFP minigene ratio, 48 h
Outline: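 S3 HeLa stable clones carrying a lamin A-EGFP splicing minigene plus DsRed2 were seeded at 600 cells/well in Opti-MEM with 2% FBS, pin-dosed and incubated 48 h at 37°C. Acumen cytometry (488 nm) gave the GFP/RFP total-intensity ratio.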

[1] = measured here: RFP viability control channel
[2] = measured here: GFP splicing reporter channel

Row | Structure (SMILES) | AC50 [1] | AC50 [2]
1 | CCc1nnc(NC(=O)c2ccc(S(=O)(=O)N3CCCc4ccccc43)cc2)o1 | 10 µM [rising, partial curve] | –
2 | Cc1ccccc1CN1CCc2nc(N3CCN(c4ncccn4)CC3)ncc2C1 | 31.6 µM [falling, partial curve] | 25.1 µM [falling, partial curve]
3 | COC(=O)c1c[nH]n2c(=O)c(Cc3ccc(F)cc3Cl)c(C)nc12 | 14.1 µM [rising, single point] | –
4 | CCCCn1c(O)c(/C=C2\C=NN=C2c2ccccc2)sc1=S | 5.62 µM [rising, partial curve] | –
5 | CCSc1nc2c(cnn2-c2ccc(C)cc2)c(=O)[nH]1 | 12.6 µM [rising, single point] | –
6 | Cc1cccc(N2CCN(S(=O)(=O)c3cn(C)c(C)n3)CC2)c1C | – | 22.4 µM [falling, partial curve, poor fit]
7 | Cc1cc(CNC(=O)c2ccc(C)c([N+](=O)[O-])c2)c2ccccc2n1 | – | 0.447 µM [falling, full curve, poor fit]
8 | Cc1ccc(SCCNC(=S)Nc2ccccc2)cc1 | 35.5 µM [rising, single point] | 12.6 µM [rising, partial curve]
9 | Cc1ccc(-n2nc(C(=O)N3CCN(c4ccc(F)cc4)CC3)c(=O)n(C)c2=O)cc1 | – | 7.94 µM [rising, partial curve, poor fit]
10 | CC1(C)CC2CC(C)(CN2S(=O)(=O)c2ccc(C(=O)Nc3cc(S(=O)(=O)N4CCOCC4)ccc3Cl)cc2)C1 (centres undefined) | 12.6 µM [rising, partial curve] | 5.62 µM [rising, partial curve]
11 | O=C(CCNc1ccc(Cl)cc1)c1cccs1 | 12.6 µM [rising, partial curve] | –
12 | COc1ccc(OC2C(=O)N(c3cc(C)ccc3C)C2c2ccc(OC)c(OC)c2)cc1 (centres undefined) | 35.5 µM [rising, single point] | –
13 | OC(COc1cccc2ccccc12)CN1CCN(c2ccccn2)CC1 (centres undefined) | 12.6 µM [rising, partial curve] | 15.8 µM [rising, partial curve]
14 | COC(=O)Nc1snnc1C | 11.2 µM [falling, partial curve] | –
15 | COc1ccc(/C=N/NC(=O)Cc2csc(Nc3cccc(C(F)(F)F)c3)n2)cc1C | 25.1 µM [falling, partial curve] | 35.5 µM [falling, single point]
16 | CC(C(=O)Nc1ccc(Cl)cc1)c1ncc(C(F)(F)F)cc1Cl (centres undefined) | 12.6 µM [rising, single point] | –
17 | COc1ccc(S(=O)(=O)N(CC(=O)Nc2ccc(F)c(Cl)c2)c2ccc(C)cc2)cc1OC | – | 3.98 µM [rising, full curve, poor fit]
18 | CCCCCCn1c2c(c(=N)c3c1CCC3)CCC2 | 11.2 µM [rising, partial curve, poor fit] | –
19 | O=C(COc1ccc(Cl)cc1Cl)NCCC1=CCCCC1 | 14.1 µM [rising, partial curve] | 11.2 µM [rising, partial curve, poor fit]
20 | CCN(CC(O)Cn1c2ccccc2c2ccccc21)S(=O)(=O)c1ccc(F)cc1 (centres undefined) | 35.5 µM [rising, single point] | –
21 | COc1ccc(OC)c(/C=C/C(=O)N2C(=O)c3cccc(N)c3C2=O)c1 | 25.1 µM [rising, single point] | 12.6 µM [rising, single point]
22 | Cc1ccc2c(c1)[nH]c1c(N3CCN(Cc4ccc5c(c4)OCO5)CC3)ncnc12 | 2.82 µM [rising, partial curve] | –
23 | COC(=O)N/N=C/c1c(C)c(C(=O)c2ccc(F)cc2)n2ccccc12 | 7.94 µM [rising, single point] | –
24 | CC(C)(C)c1ccc(C(=O)N2CCN(CCNC(=O)C(=O)NCc3ccccc3)CC2)cc1 | 25.1 µM [rising, single point] | 17.8 µM [rising, single point]
25 | COc1cccc2c1C(=O)c1c(O)c3c(c(O)c1C2=O)C[C@@](O)(C(=O)CO)C[C@@H]3O[C@H]1C[C@H](N)[C@H](O)[C@H](C)O1 | – | 6.31 µM [falling, full curve]
26 | O=C(Nc1cccc(Cn2cccn2)c1)c1cc2c(s1)CCCC2 | 15.8 µM [rising, partial curve] | –
27 | O=C(c1cnn2c1NC(c1ccco1)CC2C(F)(F)F)N1CCN(c2cccc(Cl)c2)CC1 (centres undefined) | – | 35.5 µM [falling, single point]
28 | O=C(Nc1ccc(OC(F)(F)F)cc1)C1CCN(S(=O)(=O)c2ccc3[nH]c(=O)ccc3c2)CC1 | – | 0.0224 µM [falling, full curve, poor fit]

Row | Structure (SMILES) | AC50 [1] | AC50 [2]
29 | CN(C)S(=O)(=O)Oc1cccc(C(=O)Nc2ccc(Cl)c(Cl)c2)c1 | 25.1 µM [falling, partial curve] | 11.2 µM [falling, partial curve, poor fit]
30 | Cn1ncc(C#N)c1NC(=O)C1CC(c2c(F)cccc2Cl)=NO1 (centres undefined) | 0.112 µM [rising, full curve, poor fit] | –
31 | O=C(c1cc2nc(-c3ccco3)cc(C(F)(F)F)n2n1)N1CCN(Cc2ccccc2)CC1 | 0.126 µM [falling, full curve, poor fit] | 25.1 µM [falling, partial curve, poor fit]
32 | O=C(O)CSc1nnc(CNc2ccccc2Cl)n1-c1ccccc1 | 5.01 µM [falling, single point] | –
33 | O=[N+]([O-])c1ccc(CSc2nnc(SCc3ccccc3)s2)cc1 | 25.1 µM [rising, single point] | 14.1 µM [rising, single point]
34 | Cc1cccc(/C=N/Nc2cc(N3CCOCC3)nc(N3CCOCC3)n2)c1 | 35.5 µM [falling, single point] | 35.5 µM [falling, single point]
35 | CC1(CCc2ccccc2)NC(=S)N(c2ccc(Cl)cc2)N1 (centres undefined) | – | 10 µM [rising, partial curve, poor fit]
36 | O=c1c2ccccc2nc(/C=C/c2ccc(O)cc2)n1CCc1ccccc1 | 14.1 µM [rising, partial curve] | 7.08 µM [rising, partial curve]
37 | O=C(/C=C/c1ccc2c(c1)OCO2)Nc1nc(-c2ccc(F)cc2)cs1 | 2 µM [falling, single point] | 1.78 µM [falling, full curve, poor fit]
38 | COc1cc(Nc2nc(SCc3cccc(Cl)c3)nc3ccccc23)cc(OC)c1 | 3.55 µM [rising, full curve, poor fit] | 3.55 µM [rising, full curve, poor fit]
39 | COc1cccc2c1[C@@H]1CN(CCCCn3c(=O)[nH]c4c(sc5ncc(-c6ccccc6)nc54)c3=O)C[C@@H]1CO2 | 17.8 µM [falling, single point] | 15.8 µM [falling, partial curve]
40 | O=C(Nc1nnc(-c2ccc3c(c2)CCCC3)o1)c1ccc(Cl)cc1Cl | 12.6 µM [rising, partial curve] | 10 µM [rising, partial curve]
41 | CSc1nc2ccccc2n1CC(=O)Nc1ccccc1 | 11.2 µM [rising, partial curve, poor fit] | –
42 | Cc1nn(-c2ccccc2)c(Cl)c1C1C(C#N)=C(N)OC2=C1C(=O)CC(C)(C)C2 (centres undefined) | 15.8 µM [rising, single point] | –
43 | Cc1ccccc1C(=O)NC1CC2CCC(C1)N2Cc1ccccc1 (centres undefined) | – | 0.501 µM [rising, full curve, poor fit]
44 | COc1ccc(NC(=O)CC2CC3CCC2C3)cn1 (centres undefined) | 3.98 µM [rising, single point] | –
45 | Cc1cc(C(=O)CN2C(=O)NC3(CCCCC3)C2=O)c(C)n1Cc1ccc2c(c1)OCO2 | 25.1 µM [rising, partial curve] | 22.4 µM [rising, partial curve]
46 | C/C(CCc1oc2ccc(Cl)cc2c1-c1ccc(C)o1)=N\O | 12.6 µM [rising, single point] | –
47 | Cc1[nH]c2ccccc2c1C(O)CN1CCN(c2cccc(C(F)(F)F)c2)CC1 (centres undefined) | 31.6 µM [rising, single point] | –
48 | Cc1[nH]c2ccccc2c1C(C[N+](=O)[O-])c1cccs1 (centres undefined) | 22.4 µM [rising, single point] | –
49 | Cc1ccc(C(=O)CSC2=NC(N)=C(C#N)C3(CCCCC3)C2C(N)=O)cc1 (centres undefined) | – | 14.1 µM [rising, single point]
50 | COc1cccc(/C=N/c2oc(-c3ccccc3)cc2C#N)c1O | 35.5 µM [rising, single point] | –
51 | O=C(CN(Cc1ccccc1)S(=O)(=O)c1ccc2c(c1)OCCO2)Nc1ccc2c(c1)OCCO2 | 22.4 µM [rising, single point] | –
52 | Cc1ccccc1NC(=O)Nc1ccc2nc(N3CCN(C)CC3)cc(C)c2c1 | – | 7.08 µM [falling, full curve, poor fit]
53 | CC(C)CCn1c(CN(C)Cc2ccccc2)nc2c1c(=O)n(C)c(=O)n2C | 25.1 µM [rising, partial curve] | –
54 | CC(=O)Oc1ccc(C)cc1 | 12.6 µM [falling, single point] | 12.6 µM [falling, partial curve, poor fit]
55 | Cc1ccc([N+](=O)[O-])cc1-c1ccc(/C=C(\C#N)c2[nH]nc(N)c2C#N)o1 | 0.501 µM [rising, full curve, poor fit] | –

An excerpt of these results, in CSV form.
Row,Structure (SMILES),AC50 [1],AC50 [2]
29,CN(C)S(=O)(=O)Oc1cccc(C(=O)Nc2ccc(Cl)c(Cl)c2)c1,"25.1 µM [falling, partial curve]","11.2 µM [falling, partial curve, poor fit]"
30,Cn1ncc(C#N)c1NC(=O)C1CC(c2c(F)cccc2Cl)=NO1 (centres undefined),"0.112 µM [rising, full curve, poor fit]",–
32,O=C(O)CSc1nnc(CNc2ccccc2Cl)n1-c1ccccc1,"5.01 µM [falling, single point]",–
36,O=c1c2ccccc2nc(/C=C/c2ccc(O)cc2)n1CCc1ccccc1,"14.1 µM [rising, partial curve]","7.08 µM [rising, partial curve]"
38,COc1cc(Nc2nc(SCc3cccc(Cl)c3)nc3ccccc23)cc(OC)c1,"3.55 µM [rising, full curve, poor fit]","3.55 µM [rising, full curve, poor fit]"
39,COc1cccc2c1[C@@H]1CN(CCCCn3c(=O)[nH]c4c(sc5ncc(-c6ccccc6)nc54)c3=O)C[C@@H]1CO2,"17.8 µM [falling, single point]","15.8 µM [falling, partial curve]"
40,O=C(Nc1nnc(-c2ccc3c(c2)CCCC3)o1)c1ccc(Cl)cc1Cl,"12.6 µM [rising, partial curve]","10 µM [rising, partial curve]"
41,CSc1nc2ccccc2n1CC(=O)Nc1ccccc1,"11.2 µM [rising, partial curve, poor fit]",–
42,Cc1nn(-c2ccccc2)c(Cl)c1C1C(C#N)=C(N)OC2=C1C(=O)CC(C)(C)C2 (centres undefined),"15.8 µM [rising, single point]",–
43,Cc1ccccc1C(=O)NC1CC2CCC(C1)N2Cc1ccccc1 (centres undefined),–,"0.501 µM [rising, full curve, poor fit]"
44,COc1ccc(NC(=O)CC2CC3CCC2C3)cn1 (centres undefined),"3.98 µM [rising, single point]",–
45,Cc1cc(C(=O)CN2C(=O)NC3(CCCCC3)C2=O)c(C)n1Cc1ccc2c(c1)OCO2,"25.1 µM [rising, partial curve]","22.4 µM [rising, partial curve]"
46,C/C(CCc1oc2ccc(Cl)cc2c1-c1ccc(C)o1)=N\O,"12.6 µM [rising, single point]",–
48,Cc1[nH]c2ccccc2c1C(C[N+](=O)[O-])c1cccs1 (centres undefined),"22.4 µM [rising, single point]",–
50,COc1cccc(/C=N/c2oc(-c3ccccc3)cc2C#N)c1O,"35.5 µM [rising, single point]",–
52,Cc1ccccc1NC(=O)Nc1ccc2nc(N3CCN(C)CC3)cc(C)c2c1,–,"7.08 µM [falling, full curve, poor fit]"
